# Data from the supplement of paper PMC10032668.
# Protein sequences, listed by entry. Tags and fused reporters are not part of them.
# DNM1L, O00429, UniProt O00429, whole entry: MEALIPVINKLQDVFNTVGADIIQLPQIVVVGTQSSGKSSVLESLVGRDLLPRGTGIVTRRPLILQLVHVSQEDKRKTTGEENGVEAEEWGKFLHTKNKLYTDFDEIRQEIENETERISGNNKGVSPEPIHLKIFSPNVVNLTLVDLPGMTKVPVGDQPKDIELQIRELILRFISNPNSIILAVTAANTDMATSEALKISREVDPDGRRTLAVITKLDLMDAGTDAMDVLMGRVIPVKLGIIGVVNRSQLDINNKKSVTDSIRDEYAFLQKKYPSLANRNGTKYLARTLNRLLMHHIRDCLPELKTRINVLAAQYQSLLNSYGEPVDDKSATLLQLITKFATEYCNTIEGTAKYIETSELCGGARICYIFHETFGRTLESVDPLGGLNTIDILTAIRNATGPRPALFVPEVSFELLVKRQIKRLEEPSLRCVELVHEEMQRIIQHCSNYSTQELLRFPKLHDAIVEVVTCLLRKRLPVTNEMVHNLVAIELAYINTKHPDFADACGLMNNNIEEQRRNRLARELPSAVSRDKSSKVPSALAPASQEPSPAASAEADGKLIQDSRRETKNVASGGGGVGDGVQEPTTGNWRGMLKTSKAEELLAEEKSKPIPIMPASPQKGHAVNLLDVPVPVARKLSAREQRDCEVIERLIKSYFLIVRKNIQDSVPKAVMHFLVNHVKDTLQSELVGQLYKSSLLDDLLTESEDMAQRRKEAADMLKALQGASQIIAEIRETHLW
# DDX54, Q8TDD1, UniProt Q8TDD1, whole entry: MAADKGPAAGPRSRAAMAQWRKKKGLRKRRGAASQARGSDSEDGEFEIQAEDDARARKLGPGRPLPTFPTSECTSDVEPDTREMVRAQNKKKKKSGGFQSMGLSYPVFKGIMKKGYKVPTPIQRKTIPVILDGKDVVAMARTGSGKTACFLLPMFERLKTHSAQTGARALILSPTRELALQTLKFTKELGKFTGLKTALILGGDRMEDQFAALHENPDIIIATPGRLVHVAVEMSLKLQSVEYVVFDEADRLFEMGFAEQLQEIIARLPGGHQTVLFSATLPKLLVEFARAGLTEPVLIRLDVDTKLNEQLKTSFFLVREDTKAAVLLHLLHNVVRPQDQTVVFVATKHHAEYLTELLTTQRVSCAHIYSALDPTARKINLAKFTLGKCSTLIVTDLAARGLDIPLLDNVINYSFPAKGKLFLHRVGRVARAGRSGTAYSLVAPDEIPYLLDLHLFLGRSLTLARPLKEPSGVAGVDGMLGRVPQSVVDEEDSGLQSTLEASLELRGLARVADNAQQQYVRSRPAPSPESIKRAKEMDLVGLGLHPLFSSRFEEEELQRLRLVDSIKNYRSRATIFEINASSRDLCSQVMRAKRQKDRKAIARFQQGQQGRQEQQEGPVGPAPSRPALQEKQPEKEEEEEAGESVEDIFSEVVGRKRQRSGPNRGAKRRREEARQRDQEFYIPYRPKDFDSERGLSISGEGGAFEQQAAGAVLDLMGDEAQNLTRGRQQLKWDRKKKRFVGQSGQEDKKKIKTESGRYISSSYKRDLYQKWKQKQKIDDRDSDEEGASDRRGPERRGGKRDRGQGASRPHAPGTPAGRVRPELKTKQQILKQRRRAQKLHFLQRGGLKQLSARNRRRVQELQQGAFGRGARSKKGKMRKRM
# TPM3, P06753, UniProt P06753, whole entry: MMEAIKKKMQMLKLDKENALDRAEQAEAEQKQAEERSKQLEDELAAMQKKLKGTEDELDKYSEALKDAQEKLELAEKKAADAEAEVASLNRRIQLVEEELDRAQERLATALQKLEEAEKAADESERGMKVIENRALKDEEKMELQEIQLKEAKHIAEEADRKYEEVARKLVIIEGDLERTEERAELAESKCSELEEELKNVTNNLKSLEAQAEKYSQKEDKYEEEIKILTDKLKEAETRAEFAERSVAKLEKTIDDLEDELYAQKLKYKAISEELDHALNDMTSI
# TUBB6, Q9BUF5, UniProt Q9BUF5, whole entry: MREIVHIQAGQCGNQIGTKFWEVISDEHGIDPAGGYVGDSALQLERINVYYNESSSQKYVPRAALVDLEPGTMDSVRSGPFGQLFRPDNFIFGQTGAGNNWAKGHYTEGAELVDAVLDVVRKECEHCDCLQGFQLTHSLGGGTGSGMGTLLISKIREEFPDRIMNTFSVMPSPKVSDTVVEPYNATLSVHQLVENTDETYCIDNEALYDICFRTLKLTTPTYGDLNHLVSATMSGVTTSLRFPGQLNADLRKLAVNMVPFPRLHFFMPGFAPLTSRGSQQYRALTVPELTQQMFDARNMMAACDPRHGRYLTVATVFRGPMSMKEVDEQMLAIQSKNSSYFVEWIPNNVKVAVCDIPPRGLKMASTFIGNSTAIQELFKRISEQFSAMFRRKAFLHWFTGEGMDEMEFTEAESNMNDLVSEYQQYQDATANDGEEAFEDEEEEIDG
# PARK7, Q99497, UniProt Q99497, whole entry: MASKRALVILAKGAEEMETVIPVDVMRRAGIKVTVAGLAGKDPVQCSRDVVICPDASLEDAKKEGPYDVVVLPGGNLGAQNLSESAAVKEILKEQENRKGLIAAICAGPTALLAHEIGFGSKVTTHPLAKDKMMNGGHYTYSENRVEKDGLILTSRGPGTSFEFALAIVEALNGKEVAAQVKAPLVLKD
# DCTN2, Q13561, UniProt Q13561, whole entry: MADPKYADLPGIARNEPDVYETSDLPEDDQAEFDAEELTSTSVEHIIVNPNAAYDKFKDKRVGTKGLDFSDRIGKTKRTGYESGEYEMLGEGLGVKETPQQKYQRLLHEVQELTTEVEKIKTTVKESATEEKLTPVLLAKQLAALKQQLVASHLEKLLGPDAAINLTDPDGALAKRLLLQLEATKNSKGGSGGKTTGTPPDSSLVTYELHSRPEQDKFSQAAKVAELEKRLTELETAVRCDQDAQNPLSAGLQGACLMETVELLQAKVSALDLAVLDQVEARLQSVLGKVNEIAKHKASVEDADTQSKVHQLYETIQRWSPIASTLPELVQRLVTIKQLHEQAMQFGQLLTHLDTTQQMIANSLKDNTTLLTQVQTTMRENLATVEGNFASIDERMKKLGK
# FXR2, P51116, UniProt P51116, whole entry: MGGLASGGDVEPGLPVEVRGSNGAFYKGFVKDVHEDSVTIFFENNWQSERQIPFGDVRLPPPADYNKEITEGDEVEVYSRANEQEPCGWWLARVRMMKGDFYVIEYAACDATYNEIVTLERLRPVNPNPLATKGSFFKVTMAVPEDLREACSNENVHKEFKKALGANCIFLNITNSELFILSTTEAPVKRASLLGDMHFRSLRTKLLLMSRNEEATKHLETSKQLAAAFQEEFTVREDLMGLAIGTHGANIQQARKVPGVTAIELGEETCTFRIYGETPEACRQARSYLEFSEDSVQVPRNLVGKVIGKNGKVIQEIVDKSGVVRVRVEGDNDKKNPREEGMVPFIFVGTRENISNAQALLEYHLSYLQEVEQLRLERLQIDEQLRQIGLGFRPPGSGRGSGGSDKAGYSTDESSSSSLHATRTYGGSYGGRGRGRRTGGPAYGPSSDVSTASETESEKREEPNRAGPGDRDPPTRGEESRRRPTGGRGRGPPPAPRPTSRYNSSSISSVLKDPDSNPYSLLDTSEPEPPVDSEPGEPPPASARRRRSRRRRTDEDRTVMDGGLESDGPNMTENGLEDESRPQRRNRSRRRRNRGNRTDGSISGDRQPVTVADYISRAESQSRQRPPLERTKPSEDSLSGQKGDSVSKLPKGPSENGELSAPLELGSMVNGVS
# RUVBL1, Q9Y265, UniProt Q9Y265, whole entry: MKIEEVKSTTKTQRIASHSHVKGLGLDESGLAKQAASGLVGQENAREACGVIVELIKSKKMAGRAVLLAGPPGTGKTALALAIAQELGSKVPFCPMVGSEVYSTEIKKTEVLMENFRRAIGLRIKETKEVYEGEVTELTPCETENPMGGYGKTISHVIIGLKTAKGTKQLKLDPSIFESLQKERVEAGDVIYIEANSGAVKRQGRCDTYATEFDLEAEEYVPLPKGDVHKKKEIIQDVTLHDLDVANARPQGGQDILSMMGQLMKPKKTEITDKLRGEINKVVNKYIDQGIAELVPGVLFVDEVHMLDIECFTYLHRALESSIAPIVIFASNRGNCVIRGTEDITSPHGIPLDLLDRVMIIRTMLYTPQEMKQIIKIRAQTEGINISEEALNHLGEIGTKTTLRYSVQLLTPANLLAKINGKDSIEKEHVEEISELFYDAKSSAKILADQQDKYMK
# EIF1, P41567, UniProt P41567, whole entry: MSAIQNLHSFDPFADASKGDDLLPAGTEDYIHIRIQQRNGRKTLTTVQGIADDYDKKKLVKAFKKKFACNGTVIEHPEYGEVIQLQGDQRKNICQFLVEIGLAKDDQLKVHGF
# NDUFA8, P51970, UniProt P51970, whole entry: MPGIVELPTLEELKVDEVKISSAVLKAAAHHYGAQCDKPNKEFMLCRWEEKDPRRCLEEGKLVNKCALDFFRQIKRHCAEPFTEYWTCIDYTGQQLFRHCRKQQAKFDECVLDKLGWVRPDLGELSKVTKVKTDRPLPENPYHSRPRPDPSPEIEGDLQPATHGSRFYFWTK
# GNL1, P36915, UniProt P36915, whole entry: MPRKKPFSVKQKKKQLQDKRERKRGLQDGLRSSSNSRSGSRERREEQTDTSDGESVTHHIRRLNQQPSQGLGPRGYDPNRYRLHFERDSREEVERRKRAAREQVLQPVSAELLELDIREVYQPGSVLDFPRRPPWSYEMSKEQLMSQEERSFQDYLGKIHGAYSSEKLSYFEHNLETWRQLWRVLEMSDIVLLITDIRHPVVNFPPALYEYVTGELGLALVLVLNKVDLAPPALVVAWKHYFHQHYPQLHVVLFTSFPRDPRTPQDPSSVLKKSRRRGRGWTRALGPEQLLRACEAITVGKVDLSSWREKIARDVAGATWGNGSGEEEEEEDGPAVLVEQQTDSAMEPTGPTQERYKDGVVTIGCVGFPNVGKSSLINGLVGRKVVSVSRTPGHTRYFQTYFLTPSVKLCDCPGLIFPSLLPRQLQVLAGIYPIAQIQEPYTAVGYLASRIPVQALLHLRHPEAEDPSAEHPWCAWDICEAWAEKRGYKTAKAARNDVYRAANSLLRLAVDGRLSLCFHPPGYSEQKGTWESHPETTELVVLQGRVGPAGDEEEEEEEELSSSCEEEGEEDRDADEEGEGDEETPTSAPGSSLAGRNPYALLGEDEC
# PRMT5, O14744, UniProt O14744, whole entry: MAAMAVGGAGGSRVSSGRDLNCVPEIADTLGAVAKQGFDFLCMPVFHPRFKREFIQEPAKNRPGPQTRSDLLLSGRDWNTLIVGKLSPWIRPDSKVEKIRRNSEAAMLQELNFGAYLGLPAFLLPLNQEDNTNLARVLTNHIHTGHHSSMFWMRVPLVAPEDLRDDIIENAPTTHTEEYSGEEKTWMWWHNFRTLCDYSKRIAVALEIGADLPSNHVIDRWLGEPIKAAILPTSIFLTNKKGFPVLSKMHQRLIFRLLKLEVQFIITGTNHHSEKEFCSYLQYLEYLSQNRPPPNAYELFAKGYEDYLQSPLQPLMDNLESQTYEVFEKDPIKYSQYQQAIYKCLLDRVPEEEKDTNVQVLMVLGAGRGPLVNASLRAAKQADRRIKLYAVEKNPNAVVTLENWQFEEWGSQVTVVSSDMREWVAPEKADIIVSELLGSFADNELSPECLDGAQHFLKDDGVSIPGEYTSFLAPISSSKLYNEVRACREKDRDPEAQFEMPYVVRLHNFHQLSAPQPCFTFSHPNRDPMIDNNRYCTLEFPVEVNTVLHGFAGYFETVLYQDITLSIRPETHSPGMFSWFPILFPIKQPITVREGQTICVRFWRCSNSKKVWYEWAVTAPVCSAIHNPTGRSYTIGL
# Some of the results follow. The list holds hits alone, and they repeat only in part.
# How the values were obtained:
# Test in all cases: PRISMA enrichment of interactor (LFQ) in peptide spot vs all other peptide spots (log2 fold change); higher = stronger / more specific binding of the interactor to the peptide
# [1] = biological target: DNM1L, O00429
# Description: (§1)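 PRISMA: 15-aa overlapping tiles (offset 8 aa) of 60 microproteins, plus SOS1/GLUT1 control peptides, were spot-synthesized on cellulose membranes in triplicate. Membranes were incubated with benzonase-treated HEK293T lysate, and bound proteins were identified by LC-MS/MS with LFQ. Enrichment is the log2 fold change of each protein in one spot versus all other spots. Only interactors passing the significance cutoff are listed.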
# [2] = biological target: DDX54, Q8TDD1
# Description: as §1
# [3] = biological target: EXOC8, Q8IYI6
# Description: as §1
# [4] = biological target: RSL1D1, O76021
# Description: as §1
# [5] = biological target: SARDH, Q9UL12
# Description: as §1
# [6] = biological target: SRSF4, Q08170
# Description: as §1
# [7] = biological target: WDCP, Q9H6R7
# Description: as §1
# [8] = biological target: DDX55, Q8NHQ9
# Description: as §1
# [9] = biological target: FLOT2, Q14254
# Description: as §1
# [10] = biological target: GART, P22102
# Description: as §1
# [11] = biological target: GNG12, Q9UBI6
# Description: as §1
# [12] = biological target: HNRNPH2, P55795
# Description: as §1
# [13] = biological target: NAT10, Q9H0A0
# Description: as §1
# [14] = biological target: RBM10
# Description: as §1
# [15] = biological target: RBM14, Q96PK6
# Description: as §1
# [16] = biological target: RNF213, Q63HN8
# Description: as §1
# [17] = biological target: SLC25A10, Q9UBX3
# Description: as §1
# [18] = biological target: TPM3, P06753
# Description: as §1
# [19] = biological target: TUBB6, Q9BUF5
# Description: as §1
# [20] = biological target: UMPS, P11172
# Description: as §1
# [21] = biological target: DDX23, Q9BUQ8
# Description: as §1
# [22] = biological target: DIMT1, Q9UNQ2
# Description: as §1
# [23] = biological target: DTYMK, P23919
# Description: as §1
# [24] = biological target: GAR1, Q9NY12
# Description: as §1
# [25] = biological target: GTF2I, P78347
# Description: as §1
# [26] = biological target: NOC2L, Q9Y3T9
# Description: as §1
# [27] = biological target: PPAN-P2RY11
# Description: as §1
# [28] = biological target: TXLNA, P40222
# Description: as §1
# [29] = biological target: DDX5, P17844
# Description: as §1
# [30] = biological target: PARK7, Q99497
# Description: as §1
# [31] = biological target: POLR2J3, Q9H1A7
# Description: as §1
# [32] = biological target: POP1, Q99575
# Description: as §1
# [33] = biological target: PUSL1, Q8N0Z8
# Description: as §1
# [34] = biological target: TCEA1, P23193
# Description: as §1
# [35] = biological target: UFD1, Q92890
# Description: as §1
# [36] = biological target: DCTN2, Q13561
# Description: as §1
# [37] = biological target: DDX31, Q9H8H2
# Description: as §1
# [38] = biological target: FXR2, P51116
# Description: as §1
# [39] = biological target: MTREX, P42285
# Description: as §1
# [40] = biological target: NUP160, Q12769
# Description: as §1
# [41] = biological target: PPIL4, Q8WUA2
# Description: as §1
# [42] = biological target: SNRPF, P62306
# Description: as §1
# [43] = biological target: TXNDC5, Q8NBS9
# Description: as §1
# [44] = biological target: DCUN1D5, Q9BTE7
# Description: as §1
# [45] = biological target: GALK1, P51570
# Description: as §1
# [46] = biological target: MRPL18, Q9H0U6
# Description: as §1
# [47] = biological target: PKP2, Q99959
# Description: as §1
# [48] = biological target: PTCD3, Q96EY7
# Description: as §1
# [49] = biological target: RUVBL1, Q9Y265
# Description: as §1
# [50] = biological target: EIF1, P41567
# Description: as §1
# [51] = biological target: EIF4H, Q15056
# Description: as §1
# [52] = biological target: FAM207A, Q9NSI2
# Description: as §1
# [53] = biological target: NDUFA8, P51970
# Description: as §1
# [54] = biological target: QKI, Q96PU8
# Description: as §1
# [55] = biological target: RAVER1, Q8IY67
# Description: as §1
# [56] = biological target: DECR2, Q9NUI1
# Description: as §1
# [57] = biological target: ELOVL5, Q9NYP7
# Description: as §1
# [58] = biological target: GNL1, P36915
# Description: as §1
# [59] = biological target: GPR180, Q86V85
# Description: as §1
# [60] = biological target: MFN2, O95140
# Description: as §1
# [61] = biological target: NOP53, Q9NZM5
# Description: as §1
# [62] = biological target: PIGK, Q92643
# Description: as §1
# [63] = biological target: POP7, O75817
# Description: as §1
# [64] = biological target: PRMT5, O14744
# Description: as §1
# [65] = biological target: RRP36, Q96EU6
# Description: as §1
# [66] = biological target: SMARCAD1, Q9H4L7
# Description: as §1
# [67] = biological target: SUPT5H, O00267
# Description: as §1
# [68] = biological target: DDX42, Q86XP3
# Description: as §1
# [69] = biological target: MRPL43, Q8N983
# Description: as §1
# [70] = biological target: NEPRO, Q6NW34
# Description: as §1
binder,measurement,setting,value
FAKSKSKNILVRMVS [MRPL33],PRISMA enrichment of interactor (log2),[1],6.19
FCISSGSRSTSMPSM [RP11-140K17.3_2],PRISMA enrichment of interactor (log2),[2],5.7
same,PRISMA enrichment of interactor (log2),[3],3.84
same,PRISMA enrichment of interactor (log2),[4],5.38
same,PRISMA enrichment of interactor (log2),[5],5.77
same,PRISMA enrichment of interactor (log2),[6],6.04
same,PRISMA enrichment of interactor (log2),[7],4.47
GLQGVRSMSPLTKVQ [JPX],PRISMA enrichment of interactor (log2),[8],4.08
same,PRISMA enrichment of interactor (log2),[9],4.76
same,PRISMA enrichment of interactor (log2),[10],5.35
same,PRISMA enrichment of interactor (log2),[11],3.82
same,PRISMA enrichment of interactor (log2),[12],6.16
same,PRISMA enrichment of interactor (log2),[13],5
same,PRISMA enrichment of interactor (log2),[14],5.24
same,PRISMA enrichment of interactor (log2),[15],4.86
same,PRISMA enrichment of interactor (log2),[16],8.69
same,PRISMA enrichment of interactor (log2),[17],4.91
same,PRISMA enrichment of interactor (log2),[18],7.77
same,PRISMA enrichment of interactor (log2),[19],4.83
same,PRISMA enrichment of interactor (log2),[20],6.54
PQVLRMASRETRKWT [C5orf56],PRISMA enrichment of interactor (log2),[21],6.09
same,PRISMA enrichment of interactor (log2),[22],5.66
same,PRISMA enrichment of interactor (log2),[23],5.68
same,PRISMA enrichment of interactor (log2),[24],6.66
same,PRISMA enrichment of interactor (log2),[25],6.15
same,PRISMA enrichment of interactor (log2),[26],6.76
same,PRISMA enrichment of interactor (log2),[27],6.46
same,PRISMA enrichment of interactor (log2),[28],5.78
FKWGFAAFVVAVGAE [NDUFB3],PRISMA enrichment of interactor (log2),[29],5.33
same,PRISMA enrichment of interactor (log2),[30],4.79
same,PRISMA enrichment of interactor (log2),[31],4.34
same,PRISMA enrichment of interactor (log2),[32],6.43
same,PRISMA enrichment of interactor (log2),[33],4.57
same,PRISMA enrichment of interactor (log2),[34],4.13
same,PRISMA enrichment of interactor (log2),[35],4.37
GTTCEMKDLRCCIGS [LINC00881],PRISMA enrichment of interactor (log2),[36],3.9
same,PRISMA enrichment of interactor (log2),[37],4.78
same,PRISMA enrichment of interactor (log2),[38],6.62
same,PRISMA enrichment of interactor (log2),[39],6.19
same,PRISMA enrichment of interactor (log2),[40],4.5
same,PRISMA enrichment of interactor (log2),[41],4.27
same,PRISMA enrichment of interactor (log2),[42],5.39
same,PRISMA enrichment of interactor (log2),[43],5.24
DWRKRRLQDKLAATQ [MTLN],PRISMA enrichment of interactor (log2),[44],6.11
same,PRISMA enrichment of interactor (log2),[45],4.63
same,PRISMA enrichment of interactor (log2),[46],5.45
same,PRISMA enrichment of interactor (log2),[47],5.89
same,PRISMA enrichment of interactor (log2),[48],5.95
same,PRISMA enrichment of interactor (log2),[49],6.1
LVVGFLLCLFLLMPP [TUG1],PRISMA enrichment of interactor (log2),[29],4.57
same,PRISMA enrichment of interactor (log2),[50],5.57
same,PRISMA enrichment of interactor (log2),[51],4.64
same,PRISMA enrichment of interactor (log2),[52],4.54
same,PRISMA enrichment of interactor (log2),[53],4.57
same,PRISMA enrichment of interactor (log2),[54],4.71
same,PRISMA enrichment of interactor (log2),[55],4.49
same,PRISMA enrichment of interactor (log2),[35],4.73
RILQVQLHRLAFPDA [TBX5-AS1],PRISMA enrichment of interactor (log2),[56],4.38
same,PRISMA enrichment of interactor (log2),[57],7.14
same,PRISMA enrichment of interactor (log2),[58],6.34
same,PRISMA enrichment of interactor (log2),[59],4.85
same,PRISMA enrichment of interactor (log2),[60],3.89
same,PRISMA enrichment of interactor (log2),[46],6.38
same,PRISMA enrichment of interactor (log2),[61],6.48
same,PRISMA enrichment of interactor (log2),[62],3.81
same,PRISMA enrichment of interactor (log2),[63],5.38
same,PRISMA enrichment of interactor (log2),[64],4.94
same,PRISMA enrichment of interactor (log2),[48],5.42
same,PRISMA enrichment of interactor (log2),[65],4.43
same,PRISMA enrichment of interactor (log2),[66],5.06
same,PRISMA enrichment of interactor (log2),[67],5.78
QPDLLARRRLKRCPS [PVT1],PRISMA enrichment of interactor (log2),[68],9.94
same,PRISMA enrichment of interactor (log2),[69],5.26
same,PRISMA enrichment of interactor (log2),[70],4.8

# 3 entries picked at random from those above, as already listed:
binder,measurement,setting,value
LVVGFLLCLFLLMPP [TUG1],PRISMA enrichment of interactor (log2),[29],4.57
FCISSGSRSTSMPSM [RP11-140K17.3_2],PRISMA enrichment of interactor (log2),[4],5.38
RILQVQLHRLAFPDA [TBX5-AS1],PRISMA enrichment of interactor (log2),[67],5.78

# Reprinted from the entries so far (2 entries):
binder,measurement,setting,value
PQVLRMASRETRKWT [C5orf56],PRISMA enrichment of interactor (log2),[22],5.66
same,PRISMA enrichment of interactor (log2),[23],5.68
